Reference: PubChem BioAssay AID602196 (INSERM, 2012)

- Assay: 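Genes whose knock-down alters cisplatin killing of lung cancer cells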
- Cells: human A549 lung cancer cells
- Reagents: siRNA pair against human genes
- Duration: 48 h transfection before cisplatin; time from cisplatin to read-out not stated
- Treatment: cisplatin at a dose killing half of control-siRNA cells; exact dose and duration not given
- Read-out: 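Shift in cisplatin death relative to control siRNA, from -50 (all cells die) to +50 (no cells die); siRNAs harmful on their own scored 0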
- Direction: two-siRNA summed score (-2 to +2): higher = both siRNAs protect from cisplatin killing; -2 means both sensitise
- Hit rule: 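siRNAs harmful alone (LDH or WST-1) get 0; others get +1 for less and -1 for more cisplatin killing; genes are active when the two siRNAs give the same sign, summing to ±2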
- Meaning of the calls: active = both siRNAs shift cisplatin killing the same way; inactive = no consistent shift, or siRNA harmful alone
The deposit covers about 23,000 reagents; shown is an unselected part. 455 of all reagents (2%) count as active. 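Active includes both protection and sensitisation; some change values fall well beyond the stated -50 to +50 range.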 Further read-outs or replicates are left out here. Reagent sequences are not shown. Not given: the amount of reagent.

Against KLK4, the values are two-siRNA summed score (-2 to +2) = 0; inactive.
With knock-down of CDCA3, the record shows two-siRNA summed score (-2 to +2) = 0; inactive.
LOC440705 showed two-siRNA summed score (-2 to +2) = 0; inactive.
Knock-down of TRIM23 resulted in: two-siRNA summed score (-2 to +2) = 1; inactive.
Silencing of ARHGDIB resulted in: two-siRNA summed score (-2 to +2) = 0; inactive.
ZNF663P scored two-siRNA summed score (-2 to +2) = 1; inactive.
With knock-down of TMEM42, the screen gave two-siRNA summed score (-2 to +2) = 0; inactive.
ATAT1 showed two-siRNA summed score (-2 to +2) = 0; inactive.
LOC441428 scored two-siRNA summed score (-2 to +2) = 1; inactive.
For LOC391322, the entry reads two-siRNA summed score (-2 to +2) = 0; inactive.
After knock-down of C10orf53, the record shows two-siRNA summed score (-2 to +2) = 0; inactive.
Against NRN1L, the values are two-siRNA summed score (-2 to +2) = 0; inactive.
DSN1 showed two-siRNA summed score (-2 to +2) = 0; inactive.
Against ATP6V0D1 the deposit lists two-siRNA summed score (-2 to +2) = 0; inactive.
Silencing of ADIRF resulted in: two-siRNA summed score (-2 to +2) = 1; inactive.
Knock-down of UBA5 resulted in: two-siRNA summed score (-2 to +2) = 0; inactive.
OR10G3 scored two-siRNA summed score (-2 to +2) = 0; inactive.
Knock-down of CDK16 came out at: two-siRNA summed score (-2 to +2) = 2; active.
OR56A1 showed two-siRNA summed score (-2 to +2) = 0; inactive.
CEBPG showed two-siRNA summed score (-2 to +2) = 0; inactive.
After knock-down of H2AC16, the record shows two-siRNA summed score (-2 to +2) = 0; inactive.
With knock-down of EXOSC5 the results were two-siRNA summed score (-2 to +2) = -1; inactive.
Against KANSL1 the deposit lists two-siRNA summed score (-2 to +2) = 0; inactive.
LOC440820 gave two-siRNA summed score (-2 to +2) = 1; inactive.
Silencing of LOC400553 gave: two-siRNA summed score (-2 to +2) = 0; inactive.
Against CNBP, the entry reads two-siRNA summed score (-2 to +2) = 0; inactive.
FOS gave two-siRNA summed score (-2 to +2) = 0; inactive.
Silencing of MAPK8 came out at: two-siRNA summed score (-2 to +2) = 1; inactive.
HDAC4 gave two-siRNA summed score (-2 to +2) = 0; inactive.
After knock-down of VN1R2 the results were two-siRNA summed score (-2 to +2) = -1; inactive.
After knock-down of LGI1 the results were two-siRNA summed score (-2 to +2) = 0; inactive.
Against CFAP58, the entry reads two-siRNA summed score (-2 to +2) = -1; inactive.
FHIP2B showed two-siRNA summed score (-2 to +2) = 0; inactive.
Depletion of H2BC4 resulted in: two-siRNA summed score (-2 to +2) = 0; inactive.
Against NUTF2, the values are two-siRNA summed score (-2 to +2) = -1; inactive.
Knock-down of LOC389873 resulted in: two-siRNA summed score (-2 to +2) = 2; active.
After knock-down of CYTIP, the record shows two-siRNA summed score (-2 to +2) = 0; inactive.
Against XAGE1B, the entry reads two-siRNA summed score (-2 to +2) = 0; inactive.
NRAP scored two-siRNA summed score (-2 to +2) = -1; inactive.
Depletion of LOC341098 gave: two-siRNA summed score (-2 to +2) = 0; inactive.

5 entries from above, ordered by “two-siRNA summed score (-2 to +2)”, highest first:
TRIM23 — two-siRNA summed score (-2 to +2) = 1; activity call = inactive
KLK4 — two-siRNA summed score (-2 to +2) = 0; activity call = inactive
CDCA3 — two-siRNA summed score (-2 to +2) = 0; activity call = inactive
LOC440705 — two-siRNA summed score (-2 to +2) = 0; activity call = inactive
ARHGDIB — two-siRNA summed score (-2 to +2) = 0; activity call = inactive
